Laboratory results as given in paper doi:10.1101/462036 (bioRxiv, 2018).
No constants are given. Whether binding was seen depends on the method and setting. Some binding calls cover weakened binding; strength is not graded here.

Amino acid sequences for entries named in this document (tags omitted). Residues count along the entry.
UniProt Q80Z24, residues 32-318: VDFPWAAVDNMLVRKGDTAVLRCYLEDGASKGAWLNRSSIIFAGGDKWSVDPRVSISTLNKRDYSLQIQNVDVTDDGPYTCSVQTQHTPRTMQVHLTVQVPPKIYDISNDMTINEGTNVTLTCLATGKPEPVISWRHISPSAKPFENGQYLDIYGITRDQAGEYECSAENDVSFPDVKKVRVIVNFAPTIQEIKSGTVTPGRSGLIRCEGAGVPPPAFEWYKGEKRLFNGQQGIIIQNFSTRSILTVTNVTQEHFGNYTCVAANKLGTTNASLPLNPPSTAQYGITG

Target: Mouse NEGR1 full-length ectodomain (mouse) (UniProt Q80Z24)
Test: extracellular interactome assay

binding: binds
B1: Mouse NTM full-length ectodomain (domain or fragment, UniProt Q99PJ0 34-321)
chain: GDATFPKAMDNVTVRQGESATLRCTIDNRVTRVAWLNRSTILYAGNDKWCLDPRVVLLSNTQTQYSIEIQNVDVYDEGPYTCSVQTDNHPKTSRVHLIVQVSPKIVEISSDISINEGNNISLTCIATGRPEPTVTWRHISPKAVGFVSEDEYLEIQGITREQSGEYECSASNDVAAPVVRRVKVTVNYPPYISEAKGTGVPVGQKGTLQCEASAVPSAEFQWFKDDKRLVEGKKGVKVENRPFLSKLTFFNVSEHDYGNYTCVASNKLGHTNASIMLFGPGAVSEVNN
